Experimental data: patent US20010036933A1, “Water soluble lipidated arabinogalactan” (The University of Montana, priority 1996, published 2001)
Some entries share one result that the patent states for a list of compounds.

Test system: neutrophil-HUVEC adhesion
Experiment: Neutrophil-HUVEC adhesion under physiological shear forces (closed-loop capillary tube, video-microscopy)
Format: cell-based, human
Conditions: beginning immediately upon addition at lowest concentration (1 μg/ml)
Method: The in vitro effects of Compound A-F listed in Table I on leucocyte and endothelial cell adhesion under physiological shear forces was examined as follows.
Human umbilical vein endothelial cells (HUVEC) were grown to confluence on the internal surface of collagen type I coated capillary tubes. Endothelial cells were stimulated for 4 hours with […] (10 ng, Genzyme), which upregulates adhesion molecules such as E-selectin within 4-6 hours. Neutrophils and lymphocytes were collected from normal human donors by venipuncture and separated from the blood on ficoll-histoplaque density gradients. The endothelial cell-coated tubes were then integrated into the closed-loop system. Leukocytes were infused into the assay system at a concentration of 1×10^6-5×10^6 cell/ml in DMEM plus 20 mM HEPES. Shear forces of 1-3 dynes/cm^2 (standard representation of blood flow) were applied via a variable speed peristaltic pump, and interactions between the leukocytes and endothelial cells were monitored by video-microscopy. Comparisons were made of the binding of leukocytes and endothelial cells treated with the 6 compounds and untreated controls.
To observe the effects of the compounds on neutrophil adhesive interactions, the neutrophils were infused and allowed to establish rolling for two minutes before the addition of the compounds. […] The interactions were recorded to video tape.

AG palmitate (DS 1.7%) [C]
reduction in neutrophil adhesion: ≥ 90%
